Test results published in paper PMC7968368.
These are yes or no findings as the source states them, for the method shown. Binding seen in cells or lysates may run through a third protein. These calls come from enrichment with a bait or labelling near it, and not all partners need be listed. No binding means not detected with the bait.

Sequences of proteins named here, by UniProt entry; tags and fusion partners are left off.
UniProt P70288: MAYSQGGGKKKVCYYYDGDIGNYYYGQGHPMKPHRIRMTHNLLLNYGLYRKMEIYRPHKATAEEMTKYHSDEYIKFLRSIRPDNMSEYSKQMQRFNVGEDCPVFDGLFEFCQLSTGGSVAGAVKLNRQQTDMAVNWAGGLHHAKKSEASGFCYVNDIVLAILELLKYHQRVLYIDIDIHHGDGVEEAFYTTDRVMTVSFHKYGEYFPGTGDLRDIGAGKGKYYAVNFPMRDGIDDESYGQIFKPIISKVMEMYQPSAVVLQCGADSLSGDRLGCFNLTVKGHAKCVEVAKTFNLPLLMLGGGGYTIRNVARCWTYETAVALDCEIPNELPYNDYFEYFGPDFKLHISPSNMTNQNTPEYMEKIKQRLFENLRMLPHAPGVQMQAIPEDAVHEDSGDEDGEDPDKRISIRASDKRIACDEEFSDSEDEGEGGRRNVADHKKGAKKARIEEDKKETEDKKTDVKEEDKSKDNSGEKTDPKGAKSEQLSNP
UniProt Q6A068: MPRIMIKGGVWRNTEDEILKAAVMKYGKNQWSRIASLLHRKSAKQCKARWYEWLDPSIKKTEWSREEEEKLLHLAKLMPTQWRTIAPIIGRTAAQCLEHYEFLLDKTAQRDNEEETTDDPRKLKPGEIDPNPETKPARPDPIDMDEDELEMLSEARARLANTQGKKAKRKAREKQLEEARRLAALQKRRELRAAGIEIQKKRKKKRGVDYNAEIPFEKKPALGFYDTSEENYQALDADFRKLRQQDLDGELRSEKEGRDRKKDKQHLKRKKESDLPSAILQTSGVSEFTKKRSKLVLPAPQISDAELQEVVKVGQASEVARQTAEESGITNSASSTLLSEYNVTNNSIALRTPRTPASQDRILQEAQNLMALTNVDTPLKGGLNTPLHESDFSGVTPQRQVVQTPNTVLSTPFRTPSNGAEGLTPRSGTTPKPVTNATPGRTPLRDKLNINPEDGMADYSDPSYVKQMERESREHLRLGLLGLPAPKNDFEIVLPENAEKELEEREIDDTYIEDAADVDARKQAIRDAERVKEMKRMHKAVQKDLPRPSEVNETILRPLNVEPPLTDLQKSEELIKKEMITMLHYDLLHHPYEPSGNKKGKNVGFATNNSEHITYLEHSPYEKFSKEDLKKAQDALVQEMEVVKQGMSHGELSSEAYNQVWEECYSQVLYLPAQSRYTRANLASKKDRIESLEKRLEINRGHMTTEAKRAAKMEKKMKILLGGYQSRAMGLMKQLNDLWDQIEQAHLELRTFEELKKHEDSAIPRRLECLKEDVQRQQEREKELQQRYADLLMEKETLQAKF
UniProt O09106: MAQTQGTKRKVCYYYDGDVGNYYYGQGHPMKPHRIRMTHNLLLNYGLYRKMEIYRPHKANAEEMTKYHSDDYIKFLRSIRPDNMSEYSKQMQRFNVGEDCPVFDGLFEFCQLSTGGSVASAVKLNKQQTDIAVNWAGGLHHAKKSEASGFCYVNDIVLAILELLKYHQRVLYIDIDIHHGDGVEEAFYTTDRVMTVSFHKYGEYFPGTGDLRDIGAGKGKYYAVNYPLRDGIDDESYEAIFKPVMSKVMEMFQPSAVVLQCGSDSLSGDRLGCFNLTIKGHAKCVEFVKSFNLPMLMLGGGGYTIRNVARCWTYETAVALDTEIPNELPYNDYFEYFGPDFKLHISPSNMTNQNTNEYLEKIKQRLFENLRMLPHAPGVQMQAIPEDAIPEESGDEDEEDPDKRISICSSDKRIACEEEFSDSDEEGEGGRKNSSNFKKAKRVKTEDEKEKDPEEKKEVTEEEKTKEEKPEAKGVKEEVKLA
UniProt Q61103: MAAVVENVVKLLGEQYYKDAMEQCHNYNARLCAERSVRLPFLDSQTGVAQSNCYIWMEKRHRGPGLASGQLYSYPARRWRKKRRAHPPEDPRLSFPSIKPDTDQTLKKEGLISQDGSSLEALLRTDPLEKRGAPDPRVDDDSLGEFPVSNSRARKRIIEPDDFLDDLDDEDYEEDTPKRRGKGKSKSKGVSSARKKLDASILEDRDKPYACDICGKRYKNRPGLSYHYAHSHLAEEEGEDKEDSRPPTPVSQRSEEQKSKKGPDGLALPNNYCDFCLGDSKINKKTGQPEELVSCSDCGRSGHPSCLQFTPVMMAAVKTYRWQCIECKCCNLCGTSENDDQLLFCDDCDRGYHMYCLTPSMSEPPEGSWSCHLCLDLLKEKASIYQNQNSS
UniProt P97496: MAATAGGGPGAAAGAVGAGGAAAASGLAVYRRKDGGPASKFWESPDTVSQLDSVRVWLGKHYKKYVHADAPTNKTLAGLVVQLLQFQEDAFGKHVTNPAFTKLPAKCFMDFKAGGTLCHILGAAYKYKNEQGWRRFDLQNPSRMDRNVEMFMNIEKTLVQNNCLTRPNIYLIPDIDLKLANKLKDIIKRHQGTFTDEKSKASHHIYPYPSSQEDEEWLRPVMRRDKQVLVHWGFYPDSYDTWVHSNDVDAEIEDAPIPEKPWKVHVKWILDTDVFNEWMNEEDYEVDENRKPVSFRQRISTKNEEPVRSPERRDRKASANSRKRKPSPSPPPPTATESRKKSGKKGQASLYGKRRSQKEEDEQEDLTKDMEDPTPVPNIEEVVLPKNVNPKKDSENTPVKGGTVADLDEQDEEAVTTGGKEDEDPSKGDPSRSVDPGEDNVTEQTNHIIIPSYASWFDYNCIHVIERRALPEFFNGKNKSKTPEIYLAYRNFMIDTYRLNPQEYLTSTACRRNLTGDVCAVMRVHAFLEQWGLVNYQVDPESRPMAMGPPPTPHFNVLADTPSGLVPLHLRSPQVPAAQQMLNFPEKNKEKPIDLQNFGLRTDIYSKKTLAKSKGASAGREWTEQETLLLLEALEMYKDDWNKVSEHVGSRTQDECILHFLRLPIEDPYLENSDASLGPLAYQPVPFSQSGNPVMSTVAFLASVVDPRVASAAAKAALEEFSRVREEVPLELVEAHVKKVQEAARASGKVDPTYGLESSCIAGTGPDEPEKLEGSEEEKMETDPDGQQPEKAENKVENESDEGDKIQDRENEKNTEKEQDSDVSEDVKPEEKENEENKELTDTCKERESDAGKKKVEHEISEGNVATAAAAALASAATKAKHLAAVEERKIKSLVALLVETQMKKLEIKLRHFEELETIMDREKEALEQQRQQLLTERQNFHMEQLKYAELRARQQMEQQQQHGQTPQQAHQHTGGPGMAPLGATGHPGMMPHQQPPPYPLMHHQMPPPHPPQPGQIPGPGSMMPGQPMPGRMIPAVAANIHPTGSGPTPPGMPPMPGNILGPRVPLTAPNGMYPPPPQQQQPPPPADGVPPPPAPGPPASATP
UniProt Q6DIC0: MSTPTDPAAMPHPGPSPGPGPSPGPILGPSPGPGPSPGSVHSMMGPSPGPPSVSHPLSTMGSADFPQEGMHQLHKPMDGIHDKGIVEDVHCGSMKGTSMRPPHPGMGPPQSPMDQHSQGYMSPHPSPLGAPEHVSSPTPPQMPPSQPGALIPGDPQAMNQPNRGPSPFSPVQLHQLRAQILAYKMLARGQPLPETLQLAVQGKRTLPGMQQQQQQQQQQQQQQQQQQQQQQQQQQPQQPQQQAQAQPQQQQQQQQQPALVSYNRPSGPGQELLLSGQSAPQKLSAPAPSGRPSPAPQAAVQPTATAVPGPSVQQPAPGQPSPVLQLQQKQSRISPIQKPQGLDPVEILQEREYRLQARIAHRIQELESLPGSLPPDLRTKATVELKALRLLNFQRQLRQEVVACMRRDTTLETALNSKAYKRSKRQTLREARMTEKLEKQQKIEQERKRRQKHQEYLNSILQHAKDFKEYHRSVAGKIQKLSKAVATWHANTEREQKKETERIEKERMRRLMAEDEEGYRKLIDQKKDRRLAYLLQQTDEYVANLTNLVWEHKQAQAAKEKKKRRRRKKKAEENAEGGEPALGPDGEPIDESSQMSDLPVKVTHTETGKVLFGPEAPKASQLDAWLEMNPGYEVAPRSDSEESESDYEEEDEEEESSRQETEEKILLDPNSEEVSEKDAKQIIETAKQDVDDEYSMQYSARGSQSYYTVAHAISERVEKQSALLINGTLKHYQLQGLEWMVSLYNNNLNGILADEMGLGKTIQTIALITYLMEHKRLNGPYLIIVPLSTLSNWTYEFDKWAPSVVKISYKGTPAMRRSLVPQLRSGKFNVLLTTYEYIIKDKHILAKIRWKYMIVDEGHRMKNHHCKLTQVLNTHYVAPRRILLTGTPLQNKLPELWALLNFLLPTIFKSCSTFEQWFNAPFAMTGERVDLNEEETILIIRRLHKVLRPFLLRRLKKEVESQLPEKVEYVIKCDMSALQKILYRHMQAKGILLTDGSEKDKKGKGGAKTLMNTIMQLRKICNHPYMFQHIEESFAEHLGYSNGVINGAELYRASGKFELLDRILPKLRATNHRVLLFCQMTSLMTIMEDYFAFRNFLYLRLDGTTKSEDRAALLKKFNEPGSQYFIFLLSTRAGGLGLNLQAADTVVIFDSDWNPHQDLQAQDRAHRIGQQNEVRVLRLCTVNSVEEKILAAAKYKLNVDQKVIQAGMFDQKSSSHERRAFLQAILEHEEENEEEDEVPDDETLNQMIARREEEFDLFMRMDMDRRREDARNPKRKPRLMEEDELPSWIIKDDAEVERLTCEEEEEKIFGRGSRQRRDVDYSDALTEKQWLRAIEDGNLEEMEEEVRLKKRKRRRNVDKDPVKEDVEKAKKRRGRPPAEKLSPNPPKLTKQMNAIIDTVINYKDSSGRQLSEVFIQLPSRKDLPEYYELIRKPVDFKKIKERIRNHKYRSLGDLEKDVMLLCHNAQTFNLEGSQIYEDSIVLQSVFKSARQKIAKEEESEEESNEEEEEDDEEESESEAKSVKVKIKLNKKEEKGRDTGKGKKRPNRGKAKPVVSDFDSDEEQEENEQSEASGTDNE
UniProt Q9CXY6: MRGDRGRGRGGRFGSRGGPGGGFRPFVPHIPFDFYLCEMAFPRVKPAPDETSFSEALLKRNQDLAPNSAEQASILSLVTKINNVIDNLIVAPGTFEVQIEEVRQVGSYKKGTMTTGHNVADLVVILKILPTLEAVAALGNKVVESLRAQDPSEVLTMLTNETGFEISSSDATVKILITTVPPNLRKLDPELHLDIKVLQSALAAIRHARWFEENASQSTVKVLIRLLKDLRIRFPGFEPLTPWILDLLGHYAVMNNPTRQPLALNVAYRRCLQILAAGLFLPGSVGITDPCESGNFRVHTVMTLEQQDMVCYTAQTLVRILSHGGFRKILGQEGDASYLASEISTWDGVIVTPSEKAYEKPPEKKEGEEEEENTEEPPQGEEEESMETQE
UniProt P23198: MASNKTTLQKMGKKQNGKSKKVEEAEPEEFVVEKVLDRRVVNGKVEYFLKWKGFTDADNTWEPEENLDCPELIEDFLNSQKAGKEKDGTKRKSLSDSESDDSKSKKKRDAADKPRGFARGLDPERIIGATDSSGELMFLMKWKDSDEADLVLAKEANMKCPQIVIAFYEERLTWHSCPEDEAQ
UniProt Q60668: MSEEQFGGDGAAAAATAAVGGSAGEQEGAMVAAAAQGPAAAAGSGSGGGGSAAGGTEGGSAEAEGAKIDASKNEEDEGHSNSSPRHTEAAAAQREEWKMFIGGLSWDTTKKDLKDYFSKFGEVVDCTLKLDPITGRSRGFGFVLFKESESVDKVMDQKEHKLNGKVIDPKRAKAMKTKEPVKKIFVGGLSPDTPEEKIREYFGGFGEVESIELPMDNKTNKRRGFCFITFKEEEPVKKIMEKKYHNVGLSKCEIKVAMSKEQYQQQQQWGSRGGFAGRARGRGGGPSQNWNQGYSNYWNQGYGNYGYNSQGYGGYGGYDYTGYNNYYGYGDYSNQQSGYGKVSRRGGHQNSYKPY

T1: TBX2 (T-box 2) (mouse (endogenous in E14.5 lung)) (UniProt Q60707)
T1 sequence: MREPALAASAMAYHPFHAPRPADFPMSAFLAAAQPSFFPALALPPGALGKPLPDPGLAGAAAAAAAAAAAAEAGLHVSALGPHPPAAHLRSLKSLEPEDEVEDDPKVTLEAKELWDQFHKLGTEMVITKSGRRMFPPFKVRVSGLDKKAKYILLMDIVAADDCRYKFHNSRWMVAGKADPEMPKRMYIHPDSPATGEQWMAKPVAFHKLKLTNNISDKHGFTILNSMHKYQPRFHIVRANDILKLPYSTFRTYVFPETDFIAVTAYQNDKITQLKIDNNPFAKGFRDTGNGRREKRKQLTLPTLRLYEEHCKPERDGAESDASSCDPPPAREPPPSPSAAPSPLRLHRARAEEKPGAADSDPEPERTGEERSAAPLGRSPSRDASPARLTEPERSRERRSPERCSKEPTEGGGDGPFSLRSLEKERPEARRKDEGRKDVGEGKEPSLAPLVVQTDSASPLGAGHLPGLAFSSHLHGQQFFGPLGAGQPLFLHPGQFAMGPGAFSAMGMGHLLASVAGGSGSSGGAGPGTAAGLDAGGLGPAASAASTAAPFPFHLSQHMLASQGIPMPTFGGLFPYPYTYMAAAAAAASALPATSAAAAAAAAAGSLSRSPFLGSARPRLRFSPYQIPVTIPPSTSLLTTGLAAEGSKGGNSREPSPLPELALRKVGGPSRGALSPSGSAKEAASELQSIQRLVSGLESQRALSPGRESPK


Biological target: T1, TBX2 (T-box 2) (mouse (endogenous in E14.5 lung))
Assay: affinity purification with mass spectrometry; RIME protocol: formaldehyde-fixed E14.5 wildtype mouse lungs (100 each, three experiments), lysate incubated overnight at 4 °C with anti-TBX2 antibody on Protein G magnetic beads; control normal rabbit IgG; LC-MS/MS; enrichment of 2 or larger

binding | Molecule
binds | HDAC2 (histone deacetylase 2) (from UniProt P70288 1-488) (enzyme)
binds | CDC5L (cell division cycle 5-like) (from UniProt Q6A068 1-802)
binds | DNMT1 (DNA (cytosine-5) methyltransferase 1) (from UniProt P13864 1-1620) (enzyme)
binds | HDAC1 (histone deacetylase 1) (from UniProt O09106 1-482) (enzyme)
binds | DPF2 (D4, zinc and double PHD fingers family 2) (from UniProt Q61103 1-391)
binds | SMARCC1 (SWI/SNF related, matrix associated, actin dependent regulator of chromatin, subfamily c, member 1) (from UniProt P97496 1-1104)
no binding | SMARCA2 (SWI/SNF related, matrix associated, actin dependent regulator of chromatin, subfamily a, member 2) (from UniProt Q6DIC0 1-1577) (enzyme)
binds | CHD4 (chromodomain helicase DNA binding protein 4) (from UniProt Q6PDQ2 1-1915) (enzyme)
binds | ILF2 (interleukin enhancer binding factor 2) (from UniProt Q9CXY6 1-390)
no binding | SMARCA4 (SWI/SNF related, matrix associated, actin dependent regulator of chromatin, subfamily a, member 4) (from UniProt Q3TKT4 1-1613) (enzyme)
binds | CBX3 (chromobox 3) (from UniProt P23198 1-183)
binds | HNRNPD (heterogeneous nuclear ribonucleoprotein D) (from UniProt Q60668 1-355)
binds | HMGB2 (high mobility group box 2) (protein, UniProt P30681 1-210) MGKGDPNKPRGKMSSYAFFVQTCREEHKKKHPDSSVNFAEFSKKCSERWKTMSAKEKSKFEDLAKSDKARYDREMKNYVPPKGDKKGKKKDPNAPKRPPSAFFLFCSENRPKIKIEHPGLSIGDTAKKLGEMWSEQSAKDKQPYEQKAAKLKEKYEKDIAAYRAKGKSEAGKKGPGRPTGSKKKNEPEDEEEEEEEEEEEDDEEEEEDEE
binds | LMNB1 (lamin B1) (protein, UniProt P14733 1-588) MATATPVQQQRAGSRASAPATPLSPTRLSRLQEKEELRELNDRLAVYIDKVRSLETENSALQLQVTEREEVRGRELTGLKALYETELADARRALDDTARERAKLQIELGKFKAEHDQLLLNYAKKESDLSGAQIKLREYEAALNSKDAALATALGDKKSLEGDLEDLKDQIAQLEASLSAAKKQLADETLLKVDLENRCQSLTEDLEFRKNMYEEEINETRRKHETRLVEVDSGRQIEYEYKLAQALHEMREQHDAQVRLYKEELEQTYHAKLENARLSSEMNTSTVNSAREELMESRMRIESLSSQLSNLQKESRACLERIQELEDMLAKERDNSRRMLSDREREMAEIRDQMQQQLSDYEQLLDVKLALDMEISAYRKLLEGEEERLKLSPSPSSRVTVSRASSSRSVRTTRGKRKRVDVEESEASSSVSISHSASATGNVCIEEIDVDGKFIRLKNTSEQDQPMGGWEMIRKIGDTSVSYKYTSRYVLKAGQTVTVWAANAGVTASPPTDLIWKNQNSWGTGEDVKVILKNSQGEEVAQRSTVFKTTIPEEEEEEEEEPIGVAVEEERFHQQGAPRASNKSCAIM
binds | RBM39 (RNA binding motif protein 39) (protein, UniProt Q8VH51 1-530) MADDIDIEAMLEAPYKKDENKLNSANGHEERSKKRKKSKSRSRSHERKRSKSKERKRSRDRERKKSKSRERKRSRSKERRRSRSRSRDRRFRGRYRSPYSGPKFNSAIRGKIGLPHSIKLSRRRSRSKSPFRKDKSPVREPIDNLTPEERDARTVFCMQLAARIRPRDLEEFFSTVGKVRDVRMISDRNSRRSKGIAYVEFVDVSSVPLAIGLTGQRVLGVPIIVQASQAEKNRAAAMANNLQKGSAGPMRLYVGSLHFNITEDMLRGIFEPFGRIESIQLMMDSETGRSKGYGFITFSDSECAKKALEQLNGFELAGRPMKVGHVTERTDASSASSFLDSDELERTGIDLGTTGRLQLMARLAEGTGLQIPPAAQQALQMSGSLAFGAVAEFSFVIDLQTRLSQQTEASALAAAASVQPLATQCFQLSNMFNPQTEEEVGWDTEIKDDVIEECNKHGGVIHIYVDKNSAQGNVYVKCPSIAAAIAAVNALHGRWFAGKMITAAYVPLPTYHNLFPDSMTATQLLVPSRR
binds | MYBBP1A (MYB binding protein (P160) 1a) (protein, UniProt Q7TPV4 1-1344) MAEMKSPTKAEPATPAEAAQSDRHSLLEHSREFLDFFWDIAKPDQETRLRATEKLLEYLRTRPNDSEMKYALKRLITGLGVGREAARPCYSLALAQLLQSFEDIPLCDILDQIQEKYSLQAMNKAMMRPSLFANLFGVLALFQSGRLVKDKEALMKSVQLLKILSQHPNHLQGQPIKALVDILSEVPESMFQEILPKVLKGNMKVILRSPKYLELFLLAKQRVPTKLESLMGSVDLFSEDNIPSLVNILKVAANSVKKEHKLPNVALDLLRLALKESRFELFWKKVLEEGLLKNPSWTSSYMCFRLLGASLPLLSEEQLQLVMRGDLIRHFGENMVISKPQNLFKIIPEISTYVGTFLEGCQDDPKRQLTMMVAFTTITNQGLPVMPTFWRVTRFLNAEALQSYVAWLRDMFLQPDLNSLVDFSTANQKRAQDASLNVPERAVFRLRKWIIHRLVSLVDHLHLEKDEAVVEQIARFCLFHAFFKTKKATPQIPETKQHFSFPLDDRNRGVFVSAFFSLLQTLSVKFRQTPDLAENGKPWTYRLVQLADMLLNHNRNVTSVTSLTTQQRQAWDQMMSTLKELEARSSETRAIAFQHLLLLVGLHIFKSPAESCDVLGDIQTCIKKSMEQNPRRSRSRAKASQEPVWVEVMVEILLSLLAQPSNLMRQVVRSVFGHICPHLTPRCLQLILAVLSPVTNEDEDDNVVVTDDADEKQLQHGEDEDSDNEDNKNSESDMDSEDGEESEEEDRDKDVDPGFRQQLMEVLKAGNALGGVDNEEEEELGDEAMMALDQNLASLFKEQKMRIQARNEEKNKLQKEKKLRRDFQIRALDLIEVLVTKQPEHPLILELLEPLLNVIQHSMRSKGSTKQEQDLLHKTARIFMHHLCRARRYCHEVGPCAEALHAQVERLVQQAGSQADASVALYYFNASLYLLRVLKGNTNKRHQDGHKLHGADTEDSEDQAANCLDLDFVTRVYSASLESLLTKRNSSLTVPMFLSLFSRYPVICKNLLPVLAQHVAGPSRPRHQAQACLMLQKTLSARELRVCFEDPEWEQLITQLLGKATQTLQTLGEAQSKGEHQKELSILELLNTLLRTVNHEKLSVDLTAPLGVLQSKQQKLQQSLQQGNHSSGSNRLYDLYWQAMRMLGVQRPKSEKKNAKDIPSDTQSPVSTKRKKKGFLPETKKRKKLKSEGTTPEKNAASQQDAVTEGAMPAATGKDQPPSTGKKKRKRVKASTPSQVNGITGAKSPAPSNPTLSPSTPAKTPKLQKKKEKLSQVNGATPVSPIEPESKKHHQEALSTKEVIRKSPHPQSALPKKRARLSLVSRSPSLLQSGVKKRRVASRRVQTP
binds | RBM14 (RNA binding motif protein 14) (protein, UniProt Q8C2Q3 1-669) MKIFVGNVDGADTTPEELAALFAPYGTVMSCAVMKQFAFVHMRENAGAVRAIEALHGHELRPGRALVVEMSRPRPLNTWKIFVGNVSAACTSQELRSLFERRGRVIECDVVKDYAFVHMEKEADAKAAIAQLNGKEVKGKRINVELSTKGQKKGPALAIQSGDKTKKPGAGDTAFPGTGGFSATFDYQQAFGNSTGGFDGQARQPTPPFFGRDRSPLRRSPPRASYVAPLTAQPATYRAQPSVSLGAAYRAQPSASLGVGYRTQPMAAQAASYRAQPSVSLGAPYRGQLASPSSQSAAASSLGPYGGVQPSASALSTYGGQAAAASSLNSYGAQGSSLASYGNQPSSYGAQAASSYGVRAAASSYNTQGAASSLGSYGAQAASYGAQSAASSLAYGAQAASYSAQPSASYSAQSAPYAAQQAASYSSQPAAYVAQPATAAAYASQPAAYAAQATTPMAGSYGAQPVVQTQLNSYGAQASIGLSGSYGAQSAAAATGSYGAAAAYGAQPSATLAAPYRTQSSASLAASYAAQQHPQAAASYRGQPGSAYDGTGQPSAAYLSMSQGAVANANSTPPPYERTRLSPPRASYDDPYKKAVAMSKRYGSDRRLAELSDYRRLSESQLSFRRSPTKSSLDYRRLPDAHSDYARYSGSYNDYLRAAQMHSGYQRRM
